# Results taken from the supplement of paper PMC3334620.
# Over roughly 33,000 sequences, “E-score (-0.5 to 0.5)” has its median near -0.016; the highest 2% begin near 0.3. The list shows a part of the results.
# Biological target: T1, Yer184c (UniProt P39961)
# T1 sequence: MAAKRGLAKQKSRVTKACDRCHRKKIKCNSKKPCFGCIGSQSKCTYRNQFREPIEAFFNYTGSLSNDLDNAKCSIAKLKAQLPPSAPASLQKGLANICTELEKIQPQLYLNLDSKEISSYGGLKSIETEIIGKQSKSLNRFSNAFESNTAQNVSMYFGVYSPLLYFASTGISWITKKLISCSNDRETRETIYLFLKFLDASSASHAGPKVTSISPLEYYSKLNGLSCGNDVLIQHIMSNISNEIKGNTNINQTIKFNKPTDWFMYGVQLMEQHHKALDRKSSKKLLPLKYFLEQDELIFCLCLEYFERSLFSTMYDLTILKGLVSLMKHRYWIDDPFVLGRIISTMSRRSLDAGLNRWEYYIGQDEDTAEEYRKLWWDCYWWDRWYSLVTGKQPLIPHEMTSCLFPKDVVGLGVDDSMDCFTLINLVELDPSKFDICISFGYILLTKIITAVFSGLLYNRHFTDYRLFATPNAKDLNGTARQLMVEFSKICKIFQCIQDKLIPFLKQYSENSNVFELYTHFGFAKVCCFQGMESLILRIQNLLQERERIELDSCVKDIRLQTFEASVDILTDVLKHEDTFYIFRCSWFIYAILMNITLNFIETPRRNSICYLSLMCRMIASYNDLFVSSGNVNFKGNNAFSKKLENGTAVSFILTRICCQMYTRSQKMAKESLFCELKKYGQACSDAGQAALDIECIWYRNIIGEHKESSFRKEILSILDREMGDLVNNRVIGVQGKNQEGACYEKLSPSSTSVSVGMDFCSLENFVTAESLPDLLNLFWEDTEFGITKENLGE
# Assay: PBM E-score (8-mer binding enrichment) (E-score (-0.5 to 0.5)); higher = stronger / more preferred TF binding
# Conditions: protein concentration: 100 nM; construct: GST-full length
# Procedure, shortened: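 Universal all-10-mer Agilent arrays, double-stranded by primer extension on fresh or once-stripped slides, were probed with about 100-200 nM GST-tagged yeast transcription factors made by PURExpress. Fluorescent anti-GST detected bound protein, and masliner normalised the scans. E-scores from the Universal PBM Analysis Suite were given to each ungapped eight-base word pooled with its reverse complement.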
row,Sequence,PBM E-score
1,AACGACCT,-0.125
2,CATTGCGG,0.0483
3,CTGTGTGA,0.0173
4,TTCATGAA,0.0516
5,GCGTGTGA,-0.0408
6,ATTGCCGA,0.311
7,AGCCTGCA,-0.0587
8,CTATATAG,-0.109
9,CCAATTTA,0.144
10,AGAATGGA,0.111
11,CTTCCCCA,-0.2
12,GGTGTACA,-0.192
13,CTAAAGTA,-0.0708
14,CCAGTAAC,0.0685
15,AACGCCTC,-0.271
16,GCCCCGAA,0.0495
17,CTATGATA,0.162
18,CAGCTCTA,-0.245
19,AAACGGGA,0.0951
20,AAAAATCG,0.16
21,AAGCTCCT,-0.237
22,AAGTTCCG,0.307
23,GTGCAGGA,-0.147
24,TACTGAGA,-0.0163
25,ACTTCTTA,0.00115

row,Sequence,PBM E-score
1,CAGCGCGA,-0.0936
2,GGTCTCTA,-0.0615
3,AGCATAGC,-0.255
4,CGCTACCG,0.0261
5,AGCGATCA,-0.088
6,GGAGTAAC,0.0833
7,AAAGCAGG,-0.0309
8,GCATCCCA,-0.26
9,GGTTGGTA,0.0597
10,CATGGGGG,-0.317
11,TGCCGGCA,0.431
12,GTACTCAA,-0.0651
13,ACGTGGGA,-0.288
14,AATTCGAT,0.184
15,AGGCTATC,0.0945
16,AGAGGTTA,-0.0189
17,AATCACCG,0.106
18,AATAGGAA,0.183
19,TGCCGAAA,0.371
20,CCGCTATA,-0.0173
21,CGATGCCC,-0.265
22,ATTGGAGA,0.0709
23,CGGTGCGA,0.00174
24,AATTGGAA,0.11
25,ACAACTCA,0.104

# Some of the entries so far, as tab-separated lines.
row	Sequence	PBM E-score
16	AGAGGTTA	-0.0189
17	AATCACCG	0.106
18	AATAGGAA	0.183
19	TGCCGAAA	0.371
20	CCGCTATA	-0.0173
21	CGATGCCC	-0.265

# Later entries:

row,Sequence,PBM E-score
1,CCAGACGG,-0.155
2,CAGTGTGC,-0.293
3,ATAAGATA,0.145
4,AGGATGGC,0.0583
5,ACACTCCG,-0.0224
6,CAGAGTGA,-0.114
7,AACTCGAT,0.12
8,AAGACCAC,-0.189
9,CTCATTGA,-0.069
10,GTAGCCAA,-0.193
11,CCAGAGAG,-0.195
12,CGCTGGCC,-0.269
13,AGTATAAG,-0.00431
14,CGACAGTC,-0.182
15,AGCAGCTG,0.0525
16,CGAGAGTA,0.243
17,AAACCGTT,0.0314
18,GTAGGCGA,-0.203
19,CAACATCA,0.152
20,TAGGTACA,-0.112
21,CCTGCGGA,0.0888
22,CGCTGCCA,-0.234
23,GTCTTTGA,-0.0188
24,CCACGATC,0.109
25,ACGTTTAT,0.0798

row,Sequence,PBM E-score
1,AGCAGACG,-0.117
2,CGATAACG,-0.188
3,ACCAAAAT,0.0978
4,CATGCATC,0.126
5,ACCCCCCC,-0.413
6,ACCCCGGC,0.0581
7,CTCAAGTA,-0.154
8,GATAACGC,0.0614
9,AGGCCAGC,-0.242
10,CAGATACA,0.138
11,GAATACGA,0.118
12,TCACATGA,-0.148
13,CACGAGTA,-0.0697
14,AACTACTG,-0.0473
15,GGGGACAA,-0.0319
16,ATGGATAG,-0.0469
17,ATAGACAA,0.0858
18,AGTTGCGC,-0.0234
19,CCCCTGCC,-0.291
20,AACAGGGT,-0.172
21,GATGAGGA,-0.0209
22,GGATTGAA,0.221
23,AGGCGTTC,-0.172
24,GTATGAAA,0.103
25,TATAGACA,0.195

row,Sequence,PBM E-score
1,ATTCGAGC,-0.0625
2,GGGGGTAA,-0.348
3,AAGTTAGT,0.184
4,ACAGGGTA,-0.16
5,GGGGGGGA,-0.417
6,AAGTAACG,-0.00733
7,AGACAAGC,-0.0657
8,CTTCGGAC,0.325
9,TGATACCA,0.0294
10,TCGATGCA,-0.0955
11,AATTGGGT,0.097
12,GAGAGATC,-0.164
13,AAATCGAC,0.0368
14,AAACGCTC,-0.0382
15,CGTAGCAC,0.00727
16,ATCGCCCA,-0.266
17,CTGACGTC,-0.0569
18,ATGGATTA,-0.155
19,ACATGGCT,-0.242
20,CCTCATAA,0.0128
21,AGTTGGTG,-0.115
22,GCGGCGAC,0.117
23,ACAACCAC,0.148
24,CCACCGGA,0.346
25,ATCATTGC,-0.139

row,Sequence,PBM E-score
1,CCTCGCAC,-0.0957
2,TCTGACCA,0.142
3,AGCGCTCG,0.00391
4,ACTCTGGG,-0.149
5,AGCCGGCG,0.372
6,ACACGACA,-0.00801
7,TCCGTAAA,0.303
8,GTAGAGCA,-0.191
9,CCCTCGGA,0.237
10,CAGGCCGA,0.108
11,ACAACGAT,0.135
12,CGACCCAG,-0.134
13,CTTCTCAC,0.0389
14,GAAACGCC,0.158
15,AGTTTCGG,0.232
16,TGCAGCAA,0.0453
17,CCGGGGGA,0.00494
18,AGACAGGA,0.129
19,GAGGCATC,-0.162
20,ATCGCTGC,-0.0188
21,ATGCAATG,-0.145
22,CAAGCTGA,0.131
23,CTTCCTTA,-0.0823
24,GATGTTGA,0.0352
25,CCCTGTGC,-0.228

row,Sequence,PBM E-score
1,GGGGTTTA,-0.216
2,ACCCTACT,-0.17
3,AAGGGGCA,-0.299
4,AAATGGGT,0.0714
5,ATTATGGA,0.122
6,GCACAACC,-0.0279
7,CTGATCTC,0.00463
8,CAAATCTC,0.0666
9,CAGTTGCC,-0.0212
10,CTAACATC,0.0267
11,ACAAGGCT,-0.268
12,TACGTCGA,-0.0468
13,CCACCGCG,0.0962
14,TACTCCGA,0.262
15,CCTGTCCA,-0.323
16,CCAGTGAG,-0.227
17,AATCGTCC,0.0346
18,CTCATTCA,-0.057
19,CATTATAC,0.0866
20,CCAGCCTC,-0.323
21,GCGTTGGA,-0.101
22,ATGAGCCC,-0.243
23,GAGCCTGC,-0.0847
24,AAACGGAC,-0.00077
25,CTTAAGAA,0.145

row,Sequence,PBM E-score
1,TAAAGCCA,0.12
2,AAGGCGCC,0.0286
3,CCAAGTCC,-0.22
4,TCATGTCA,-0.0541
5,CTGGGATC,-0.146
6,GCCCGGAA,0.359
7,ACGTCCTG,-0.295
8,CAGAATAG,0.0192
9,ACTACAAA,0.146
10,TTAGCTAA,0.0769
11,ACCACAAG,-0.0787
12,CGGTCCGC,0.231
13,ACGATCCG,0.266
14,ATTGCGTG,-0.0519
15,GGTCGAGA,-0.24
16,ATGTCGAG,-0.0552
17,TAATCGTA,0.0153
18,CCCAAAAA,-0.0971
19,TCCTGAGA,-0.11
20,AGAGGATC,-0.121
21,AAGTAATA,0.00482
22,CCAAGAAC,0.0263
23,AGTTCAAT,-0.186
24,GTCCACAA,-0.141
25,GCACACAC,-0.0423

row,Sequence,PBM E-score
1,ACCTAATG,-0.284
2,CCGCCTAC,-0.0578
3,CTTGCAGC,-0.0242
4,AACGTAAG,-0.122
5,GATTCTGA,0.103
6,ATCTTTAC,0.0213
7,CAATACTG,-0.0319
8,ATTAGATC,0.127
9,GCAAGCTA,0.034
10,CACCTACA,-0.206
11,AACTGACT,-0.0574
12,GCGTACAC,-0.178
13,ATCGGATG,0.236
14,ACCTACTC,-0.146
15,AGCCGGCC,0.333
16,AAGTCAGA,-0.0473
17,CACGGTCA,-0.0695
18,AAGCTTGA,-0.0898
19,GAAATATC,0.175
